# Experimental data reported in article PMC11148063.
# Protein sequences, listed by entry. Tags and fused reporters are not part of them. Residues count along the entry.
# UniProt P07237, residues 18-508: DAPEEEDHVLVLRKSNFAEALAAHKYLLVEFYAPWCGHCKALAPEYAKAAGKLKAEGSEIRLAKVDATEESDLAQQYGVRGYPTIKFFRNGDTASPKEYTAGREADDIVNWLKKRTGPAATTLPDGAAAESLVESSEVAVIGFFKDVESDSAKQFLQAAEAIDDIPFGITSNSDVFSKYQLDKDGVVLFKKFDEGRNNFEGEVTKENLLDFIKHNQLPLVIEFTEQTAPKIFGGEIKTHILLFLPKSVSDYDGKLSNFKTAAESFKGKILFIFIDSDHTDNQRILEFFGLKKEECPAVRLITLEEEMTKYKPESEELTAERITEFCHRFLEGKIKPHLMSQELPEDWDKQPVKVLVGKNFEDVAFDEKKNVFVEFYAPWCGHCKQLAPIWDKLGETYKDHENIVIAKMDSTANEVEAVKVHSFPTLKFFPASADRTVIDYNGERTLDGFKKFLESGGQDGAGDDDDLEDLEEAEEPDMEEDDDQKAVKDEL
# UniProt P30101, residues 25-505: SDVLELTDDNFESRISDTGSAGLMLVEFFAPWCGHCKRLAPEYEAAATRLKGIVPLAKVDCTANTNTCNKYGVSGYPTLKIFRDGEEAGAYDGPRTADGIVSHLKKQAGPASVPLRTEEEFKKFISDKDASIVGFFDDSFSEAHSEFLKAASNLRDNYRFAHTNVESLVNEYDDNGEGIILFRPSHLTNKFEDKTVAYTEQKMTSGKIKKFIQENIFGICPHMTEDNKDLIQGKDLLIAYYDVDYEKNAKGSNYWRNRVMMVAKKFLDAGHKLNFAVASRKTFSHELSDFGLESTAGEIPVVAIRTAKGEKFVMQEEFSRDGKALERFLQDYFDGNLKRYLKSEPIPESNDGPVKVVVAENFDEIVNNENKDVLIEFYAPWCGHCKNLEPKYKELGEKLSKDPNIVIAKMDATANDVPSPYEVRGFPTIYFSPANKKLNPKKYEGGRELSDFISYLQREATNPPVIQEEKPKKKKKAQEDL
# These are yes or no findings as the source states them, for the method shown. Binding seen in cells or lysates may run through a third protein. A yes stands for co-enrichment or nearness to the bait. Other partners may have been found.
# T1: human Fructosamine-3-kinase (HsFN3K), endogenous (human (endogenous in HepG2)) (UniProt Q9H479)
# T1 sequence: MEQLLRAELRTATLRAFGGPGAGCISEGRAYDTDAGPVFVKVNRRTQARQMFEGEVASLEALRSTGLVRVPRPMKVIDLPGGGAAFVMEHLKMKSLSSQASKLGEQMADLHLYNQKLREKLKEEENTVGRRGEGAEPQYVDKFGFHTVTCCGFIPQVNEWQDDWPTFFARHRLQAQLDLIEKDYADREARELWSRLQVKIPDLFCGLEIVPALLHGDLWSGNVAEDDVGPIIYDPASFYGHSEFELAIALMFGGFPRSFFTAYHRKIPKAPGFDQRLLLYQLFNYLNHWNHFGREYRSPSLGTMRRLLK
# B1: protein disulfide isomerase (PDI) family A member 4 (PDIA4) (enzyme, UniProt P13667 21-645)
# chain: VAGAEGPDEDSSNRENAIEDEEEEEEEDDDEEEDDLEVKEENGVLVLNDANFDNFVADKDTVLLEFYAPWCGHCKQFAPEYEKIANILKDKDPPIPVAKIDATSASVLASRFDVSGYPTIKILKKGQAVDYEGSRTQEEIVAKVREVSQPDWTPPPEVTLVLTKENFDEVVNDADIILVEFYAPWCGHCKKLAPEYEKAAKELSKRSPPIPLAKVDATAETDLAKRFDVSGYPTLKIFRKGRPYDYNGPREKYGIVDYMIEQSGPPSKEILTLKQVQEFLKDGDDVIIIGVFKGESDPAYQQYQDAANNLREDYKFHHTFSTEIAKFLKVSQGQLVVMQPEKFQSKYEPRSHMMDVQGSTQDSAIKDFVLKYALPLVGHRKVSNDAKRYTRRPLVVVYYSVDFSFDYRAATQFWRSKVLEVAKDFPEYTFAIADEEDYAGEVKDLGLSESGEDVNAAILDESGKKFAMEPEEFDSDTLREFVTAFKKGKLKPVIKSQPVPKNNKGPVKVVVGKTFDSIVMDPKKDVLIEFYAPWCGHCKQLEPVYNSLAKKYKGQKGLVIAKMDATANDVPSDRYKVEGFPTIYFAPSGDKKNPVKFEGGDRDLEHLSKFIEEHATKLSRTKEEL
# B2: protein disulfide isomerase (PDI) family A member 6 (PDIA6) (enzyme, UniProt Q15084 20-440)
# chain: LYSSSDDVIELTPSNFNREVIQSDSLWLVEFYAPWCGHCQRLTPEWKKAATALKDVVKVGAVDADKHHSLGGQYGVQGFPTIKIFGSNKNRPEDYQGGRTGEAIVDAALSALRQLVKDRLGGRSGGYSSGKQGRSDSSSKKDVIELTDDSFDKNVLDSEDVWMVEFYAPWCGHCKNLEPEWAAAASEVKEQTKGKVKLAAVDATVNQVLASRYGIRGFPTIKIFQKGESPVDYDGGRTRSDIVSRALDLFSDNAPPPELLEIINEDIAKRTCEEHQLCVVAVLPHILDTGAAGRNSYLEVLLKLADKYKKKMWGWLWTEAGAQSELETALGIGGFGYPAMAAINARKMKFALLKGSFSEQGINEFLRELSFGRGSTAPVGGGAFPTIVEREPWDGRDGELPVEDDIDLSDVELDDLGKDEL
# Target: T1, human Fructosamine-3-kinase (HsFN3K), endogenous (human (endogenous in HepG2))
# Assay: affinity purification with mass spectrometry; IP with rabbit polyclonal anti-FN3K antibody and protein A/G plus agarose beads from WT and FN3K KO HepG2 lysate (50 mM Tris-HCl pH 7.4, 150 mM NaCl, 1% Triton X-100, 1 mM EDTA, 10% glycerol), 4 C, 18 h; LC-MS/MS; hits: only in WT or LFQ ratio WT/KO > 1.5
row,binding,Molecule
1,binds,prolyl 4-hydroxylase subunit beta (P4HB aka PDIA1) (from UniProt P07237 18-508) (enzyme)
2,binds,protein disulfide isomerase (PDI) family A member 3 (PDIA3) (from UniProt P30101 25-505) (enzyme)
3,binds,B1
4,binds,B2
